# Hit rate of the full screen: of about 580,000 compounds, about 6,100 (1.1%) were called active. Inconclusive means that the source gave no clear call. Such entries were picked first, then a sample of the others. Calls come from the whole dose curve; as a rule, active = well fitted inhibition curve with a large enough effect; inconclusive = small, poorly fitted or top-dose-only effect, or another doubt; inactive = no such curve, though single readings can be large or run the other way. Potencies of inconclusive entries are doubtful fits and often do not repeat.
# The chains behind the UniProt entries cited, without tags or fusion partners. Where a name states a change or a piece, a line headed by the entry shows the natural chain unless it says otherwise.
# UniProt P18054: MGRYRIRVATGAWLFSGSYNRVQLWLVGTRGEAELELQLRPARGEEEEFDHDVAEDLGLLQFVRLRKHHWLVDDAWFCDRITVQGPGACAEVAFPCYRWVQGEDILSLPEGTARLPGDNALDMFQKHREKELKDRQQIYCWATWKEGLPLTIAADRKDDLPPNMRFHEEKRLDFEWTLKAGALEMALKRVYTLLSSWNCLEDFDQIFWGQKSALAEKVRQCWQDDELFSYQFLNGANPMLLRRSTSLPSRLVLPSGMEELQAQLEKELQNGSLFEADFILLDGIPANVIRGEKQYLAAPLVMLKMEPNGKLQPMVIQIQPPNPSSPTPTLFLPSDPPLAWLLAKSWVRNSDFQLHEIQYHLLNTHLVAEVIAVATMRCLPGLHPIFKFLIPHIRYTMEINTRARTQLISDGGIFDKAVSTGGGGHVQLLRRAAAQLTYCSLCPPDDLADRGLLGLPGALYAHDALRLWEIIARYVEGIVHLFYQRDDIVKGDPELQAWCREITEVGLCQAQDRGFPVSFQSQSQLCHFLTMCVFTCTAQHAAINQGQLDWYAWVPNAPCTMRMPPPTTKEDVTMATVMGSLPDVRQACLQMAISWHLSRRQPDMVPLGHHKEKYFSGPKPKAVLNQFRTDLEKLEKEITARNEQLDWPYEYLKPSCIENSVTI
# Target: Polyunsaturated fatty acid lipoxygenase ALOX12 (Homo sapiens) (UniProt P18054)
# Experiment: Primary qHTS assay for inhibitors of human arachidonate 12S-lipoxygenase (ALOX12): Round 2
# Conditions: purified 12hLO, xylenol orange hydroperoxide absorbance; activity change, negative = inhibition: at 108 µM (top of the series) unless noted
# Summary of the method: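 Purified human 12hLO at 150 nM in 25 mM Hepes, 0.01% Triton X-100, pH 7.0, preincubated 15 min at room temperature with compound. Reaction started with 40 uM arachidonic acid, 30 min at room temperature. Hydroperoxide measured by Fe-xylenol orange, 573/405 nm absorbance ratio.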
# % is set by controls: 0 for no effect and ±100 for the full control effect; potency is the fitted concentration of half-maximal effect.
SMILES,"activity change, negative = inhibition",Potency
CC1Oc2ccc(NC(=O)c3ccc(F)cc3F)cc2CN(Cc2ccccc2Cl)C1=O (configuration not stated),inactive: 0.404%,–
CCCC(=O)N1CCC(N2C(=O)C3(CCCCC3)C2c2ccncc2)CC1 (configuration not stated),inactive: 28.8%,–
CN(c1ccc(OC(=O)c2ccc(-n3cncn3)c([N+](=O)[O-])c2)cc1)S(=O)(=O)c1ccccc1,–,"inconclusive: 112 µM [inhibitor, partial curve, poor fit]"
COc1ccc(C(C[N+](=O)[O-])c2c(C)[nH]n(-c3ccccc3)c2=O)cc1 (configuration not stated),–,"inconclusive: 44.7 µM [inhibitor, partial curve, poor fit]"
COc1cc(CN2CCC(C(=O)N3CCCC(C)C3)CC2)cc(OC)c1O (configuration not stated),–,"inconclusive: 3.16 µM [inhibitor, full curve, poor fit]"
O=C(Nc1ccc(-c2noc(-c3ccc(Cl)cc3)n2)cc1)c1ccco1,–,"inconclusive: 35.5 µM [inhibitor, single point]"
COc1cccc(NC(=O)CN(C)CC(=O)Nc2cccc(C(F)(F)F)c2)c1,inactive: 13.2%,–
COc1ccc(C2c3c(ncn(CCCO)c3=N)Oc3ccc4ccccc4c32)cc1OC (configuration not stated),–,"inconclusive: 70.8 µM [inhibitor, partial curve, poor fit]"
CCN(CC)CCCNc1nc(N)c([N+](=O)[O-])c(N2CCCCCC2)n1,–,"inconclusive: 178 µM [inhibitor, partial curve, poor fit]"
Cc1cccc(C)c1NC(=O)COC(=O)Cn1cnc2c1c(=O)n(C)c(=O)n2C,–,"inconclusive: 4.47 µM [inhibitor, single point]"
CC(=O)c1cccc(Nc2nc(-c3sc(N)nc3C)cs2)c1,inactive: -1.94%,–
NS(=O)(=O)c1ccc(CCNc2nc3c(-c4cccc(F)c4)nnn3c3ccc(Cl)cc23)cc1,–,"inconclusive: 141 µM [inhibitor, partial curve, poor fit]"
COC(=O)Oc1cncc(C(=O)O)c1,–,"inconclusive: 31.6 µM [inhibitor, partial curve, poor fit]"
Cc1noc(/C=C/c2ccco2)c1S(=O)(=O)N1CCC(C(=O)N2c3ccccc3CC2C)CC1 (configuration not stated),inactive: -29.4%,–
Cc1ccc(C(=O)OCC(=O)NCc2cccc(Cl)c2)cc1S(=O)(=O)N1CCCCC1,inactive: -30.9%,–
Cc1ccc(NC(=S)N(CCCN2CCOCC2)Cc2ccco2)cc1Cl,inactive: -10.6%,–
O=C1CSC(c2cn(-c3ccccc3)nc2-c2cc3ccccc3o2)N1Cc1ccccc1 (configuration not stated),inactive: 0%,–
CCn1c(-c2ccc3[nH]c(C)c(C)c3c2)n[nH]c1=S,–,active: 10 µM
COc1cc2sc3ccc(-c4ccc(N(C)C)nc4)cc3c(=O)c2cc1OC,inactive: -12.4%,–
Cc1cc(C)c(/C=C/c2onc(C)c2S(=O)(=O)N2CCC(C(=O)NCc3ccco3)CC2)c(C)c1,–,"inconclusive: 56.2 µM [inhibitor, partial curve, poor fit]"
COc1cccc(/C=N/NC(=S)NCCc2ccccc2)c1OC,–,"inconclusive: 15.8 µM [inhibitor, partial curve, poor fit]"

# For convenience, 2 of the compounds above.
SMILES,"activity change, negative = inhibition",Potency
CC1Oc2ccc(NC(=O)c3ccc(F)cc3F)cc2CN(Cc2ccccc2Cl)C1=O (configuration not stated),inactive: 0.404%,–
CCCC(=O)N1CCC(N2C(=O)C3(CCCCC3)C2c2ccncc2)CC1 (configuration not stated),inactive: 28.8%,–

# Further compounds follow:

SMILES,"activity change, negative = inhibition",Potency
O=C(O)c1cc(-n2[nH]c(=O)c3ccccc3c2=O)ccc1Cl,–,"inconclusive: 100 µM [inhibitor, partial curve, poor fit]"
COc1ccc(OC)c2[nH]c(C(=O)NCC(=O)Nc3ccc4c(c3)OCCO4)cc12,inactive: 18.7%,–
Cc1ccc(-n2nc(C)c(C(=O)N3CCc4ccccc4C3)c2-n2cccc2)cc1,–,"inconclusive: 39.8 µM [inhibitor, partial curve, poor fit]"
Cc1ccc(C(=O)O)cc1NC(=O)CCc1ccccc1,–,"inconclusive: 50.1 µM [inhibitor, partial curve, poor fit]"
O=C(NCc1ccccc1)C1C(c2ccc3c(c2)OCO3)=Nc2ccccc2N1C(=O)c1cccc(C(F)(F)F)c1 (configuration not stated),–,"inconclusive: 14.1 µM [inhibitor, full curve, poor fit]"
Cc1ccc(C)c(S(=O)(=O)Nc2ccc3sc(C)nc3c2)c1,–,"inconclusive: 35.5 µM [inhibitor, partial curve, poor fit]"
CSc1nnc(-c2cc3ccccc3cc2O)n1C,–,"inconclusive: 0.282 µM [inhibitor, full curve, poor fit]"
O=C(CSc1nc2nc[nH]c2c(=O)[nH]1)NCc1ccc(F)cc1,inactive: 7.42%,–
N#Cc1ccc(C(=O)N2CCCCCCNC(=O)CC2)cc1,inactive: 45.7%,–
O=C(O)c1cc(-c2ccccc2Cl)n[nH]1,–,"inconclusive: 50.1 µM [inhibitor, partial curve]"
CC1=CC(C)(C)N(S(=O)(=O)c2ccc(C)cc2)c2ccc(C)cc21,inactive: 5.46%,–
CC(=O)Nc1ccc(NC(=O)Cn2cccc2-c2nc(-c3ccccc3)no2)cc1,inactive: 6.01%,–
CCCCn1c(N)c(N(CCC(C)C)C(=O)c2oc3ccc(OCC)cc3c2C)c(=O)[nH]c1=O,–,"inconclusive: 89.1 µM [inhibitor, single point]"
CC(C)(CNC(=O)c1cc2ccccc2o1)N1CCOCC1,–,"inconclusive: 126 µM [inhibitor, partial curve, poor fit]"
Cc1ccc(C)c(N2CCN(C(=O)c3c4c(nc5ccccc35)C(=O)N(C3CCCCC3)C4)CC2)c1,–,"inconclusive: 100 µM [inhibitor, partial curve, poor fit]"
COc1ccccc1N1CCN(C(=O)c2c3c(nc4ccccc24)C(=O)N(C2CCCCC2)C3)CC1,–,"inconclusive: 112 µM [inhibitor, partial curve, poor fit]"
CCC(=O)N1CCCN(Cc2ccc3c(c2)OCO3)c2ccccc21,–,"inconclusive: 79.4 µM [inhibitor, single point]"
C=CC[N+]12CCCCC1[C@H](CO)CCC2 (some centres not stated),inactive: -19.6%,–
CCc1cc(=O)[nH]c(SCC(=O)NCc2ccc3c(c2)OCO3)n1,–,"inconclusive: 112 µM [inhibitor, single point]"
COc1ccc(CNCc2ccco2)cc1OC,–,"inconclusive: 0.501 µM [inhibitor, full curve, poor fit]"
Cc1ccc(NC(=O)CSc2nnc(-c3ccc(S(=O)(=O)N4CCCC4)cc3)o2)cc1C,–,"inconclusive: 31.6 µM [inhibitor, partial curve, poor fit]"

# From PubChem BioAssay AID1671190 (National Center for Advancing Translational Sciences (NCATS), 2021)
